Measurements as given in PubChem BioAssay AID504467 (National Center for Advancing Translational Sciences (NCATS), 2011).
Among all 330,000 compounds or so, about 7,700 (2.3%) were called active. This list was built around the results that the source calls inconclusive (neither active nor inactive); the mix of calls is not that of the screen. Calls come from the whole dose curve; as a rule, active = well fitted inhibition curve with a large enough effect; inconclusive = small, poorly fitted or top-dose-only effect, or effect the other way; inactive = flat fitted curve, though single readings scatter. Where the call is inconclusive, the potency comes from a doubtful curve fit.

test: qHTS screen for small molecules that inhibit ELG1-dependent DNA repair in human embryonic kidney (HEK293T) cells expressing luciferase-tagged ELG1; details: HEK293T ELG1-luciferase reporter, luminescence, 16 h, DNA damage induced by 5-fluorouridine; series mostly up to 46.1 µM; note: nearly all actives have a fitted effect of over 55% in size
How it was run: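 Overnight (16 hr) co-exposure of 2,000 cells/well to 5-fluorouridine and compound at 37 °C preceded detection. Luciferase was quantified via ONE-Glo luminescence; loss of signal denotes inhibition.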
Potency is the fitted concentration of half-maximal effect.

Row | Structure (SMILES) | Potency
1 | COCCNC(=O)c1nn2cccnc2c1Cl | inconclusive: 16.4 µM [activator, partial curve, poor fit]
2 | Cc1ccc(OCC(=O)Nc2nnc(C3CCCO3)s2)c(Br)c1 (configuration not stated) | inconclusive: 29.1 µM [activator, single point]
3 | CCOCCCNC(=O)CN1C(=O)/C(=C\c2ccc(C)cc2)Sc2ccccc21 | inconclusive: 29.1 µM [inhibitor, single point]
4 | O=C(Cn1cncn1)N/N=C/c1cccnc1 | inactive
5 | COC(=O)c1ccc(NC(=S)NN2CCOCC2)cc1 | inconclusive: 14.6 µM [activator, partial curve]
6 | CN(Cc1ccco1)Cc1ccc(O)c2ncccc12 | inconclusive: 29.1 µM [activator, single point]
7 | COc1ccccc1-c1cc(C(F)(F)F)n2ncc(S(=O)(=O)c3ccccc3)c2n1 | inactive
8 | O=[N+]([O-])c1ccc(OCC(O)CN2CCN(c3ccccc3F)CC2)cc1 (configuration not stated) | inactive
9 | CCn1c(=O)c2cc(C(=O)Nc3ccc(OC)cc3OC)sc2c2ccccc21 | inconclusive: 7.3 µM [activator, partial curve]
10 | CC1Sc2ccc(S(=O)(=O)N(C)Cc3ccccc3)cc2NC1=O (configuration not stated) | inconclusive: 18.3 µM [inhibitor, partial curve, poor fit]
11 | Cc1ccc(NC(=O)COC(=O)CNC(=O)C2CCCCC2)cc1S(=O)(=O)N(C)C | inactive
12 | Nc1nonc1OCCc1ccccc1 | inconclusive: 18.4 µM [activator, single point]
13 | COc1ccc(C(CNc2ccc(C(F)(F)F)cn2)N(C)C)cc1OC (configuration not stated) | inactive
14 | C=CC(C)(C)c1c2occc2c(O)c2ccc(=O)oc12 | inconclusive: 25.9 µM [inhibitor, single point]
15 | CCn1ncc(Br)c1C(=O)Nc1ccc(C(C)C)cc1 | inconclusive: 8.2 µM [activator, partial curve]
16 | O=C(Nc1nnc(-c2ccccc2Cl)o1)c1cccnc1 | inconclusive: 11.2 µM [activator, partial curve, poor fit]
17 | CC[C@]12c3[nH]c4ccc(OC)cc4c3CCN1C(=O)C(CC(=O)NCCc1ccccn1)C[C@@H]2C(=O)N1CCN(C(=O)C2CC2)CC1 (some centres not stated) | inconclusive: 23.1 µM [activator, partial curve, poor fit]
18 | O=C(Nc1ccc(N2CCOCC2)c(S(=O)(=O)Nc2ccc(Cl)cc2)c1)c1cnccn1 | inconclusive: 18.3 µM [inhibitor, partial curve, poor fit]
19 | CCOc1ccccc1N1CCN(CC(O)COC2CCCc3ccccc32)CC1 (configuration not stated) | inactive
20 | CCCOc1cccc(-c2cc(-c3n[nH]c(=S)n3CC)c3ccccc3n2)c1 | inactive
21 | O=C(NCCC1=CCCCC1)c1cnsn1 | inconclusive: 18.4 µM [activator, partial curve]
22 | CN(C)c1cccc(C(=O)N(Cc2ccccc2)Cc2ccccc2)c1 | inactive
23 | CCOc1ccc(S(=O)(=O)NCc2ccc3c(c2)OCO3)cc1 | inactive
24 | COc1ccccc1N(C)S(=O)(=O)c1ccc(C(=O)N2CCCc3ccccc32)cc1 | active: 14.6 µM

In the list so far, two have a CF3 group:
Row | Structure (SMILES) | Potency
7 | COc1ccccc1-c1cc(C(F)(F)F)n2ncc(S(=O)(=O)c3ccccc3)c2n1 | inactive
13 | COc1ccc(C(CNc2ccc(C(F)(F)F)cn2)N(C)C)cc1OC (configuration not stated) | inactive

(list continues)

Row | Structure (SMILES) | Potency
25 | O=S(=O)(c1cc(Cl)c(Cl)cc1Cl)N1CCN2CCCC2C1 (configuration not stated) | inactive
26 | Cc1ccc(C(=O)NNC(=O)c2n[nH]c(=O)c3ccccc23)cc1C | inconclusive: 25.9 µM [activator, single point]
27 | Cn1c(=O)c2c(ncn2CC(COCc2ccc(Cl)cc2)OCc2ccc(Cl)cc2)n(C)c1=O (configuration not stated) | inconclusive: 29.1 µM [inhibitor, single point]
28 | COC(=O)NNC(=O)c1ccc(C(C)(C)C)cc1 | inconclusive: 20.6 µM [activator, single point]
29 | COc1ncnc2sc(-c3ccccc3)cc12 | inconclusive: 14.6 µM [activator, partial curve]
30 | COC(=O)c1ccc(Oc2nc(N3CCCCC3)nc(N3CCOCC3)n2)cc1 | inactive
31 | O=C(/C=C/c1ccccc1[N+](=O)[O-])NCC1CCCO1 (configuration not stated) | inconclusive: 18.4 µM [activator, single point]
32 | COc1cccc(-c2nnc3sc(-c4ccc(C)cc4)nn23)c1 | inactive
33 | Cc1ccc(NC(=O)OCc2cncs2)cc1 | inconclusive: 16.4 µM [activator, partial curve]
34 | Cc1ccc(C(=O)N2c3ccccc3N(Cc3ccccc3)C(=O)C2(C)C)cc1 | inconclusive: 29.1 µM [inhibitor, single point]
35 | COc1cccc(C(=O)NNC2=C(C(=O)C(F)(F)F)CCC2)c1 | inconclusive: 20.6 µM [inhibitor, single point]
36 | CC(C)(C)OC(=O)C[C@H]1C/C=C\C[C@H](CC(=O)N(CCO)Cc2ccccc2)C(=O)N[C@H](C(C)(C)C)COC1=O | inconclusive: 23.1 µM [inhibitor, partial curve]
37 | CCCn1nc(C(=O)NC2CCCC2)c2ccccc2c1=O | inconclusive: 4.61 µM [activator, partial curve, poor fit]
38 | COc1ccc(NC(=O)C2CCN(c3cnccn3)CC2)cc1OC | inactive
39 | CCCCOc1ccc(C(=O)CCN2CCCCC2)cc1 | inactive
40 | CCOc1ccc(C(=O)n2cc(C(=O)OC)c3ccccc32)cc1OCC | inactive
41 | O=C(NCc1ccc(S(=O)(=O)Nc2ccccc2Cl)s1)c1ccccc1 | inactive
42 | CN(CCCN1CCCCC1)C(=O)CCc1nnc(C2CCCCC2)o1 | inactive
43 | O=C(Nc1nc2ccccc2n1CCOc1ccc(Cl)cc1)c1ccco1 | inconclusive: 29.1 µM [inhibitor, single point]
44 | COc1ccc(/C=N/Nc2ncnc(Cl)c2N)cc1OC | inconclusive: 20.6 µM [activator, single point]
45 | Cc1ccc(C(=O)NNC(=O)c2ccc(S(=O)(=O)N(C)c3ccccc3)cc2)cc1 | inactive
46 | COc1ccc(N(CC(=O)N/N=C/c2ccc(OC3CSC3)cc2)S(=O)(=O)c2ccccc2)cc1 | inconclusive: 18.4 µM [inhibitor, partial curve, poor fit]
47 | CCCCN(C)CCCNC(=O)CN1C(=O)COc2ccc(S(=O)(=O)N3CCOCC3)cc21 | inactive
